Measured values taken from paper PMC8748630.
No constants are given. Whether binding was seen depends on the method and setting. In cells and extracts the contact can be indirect. These calls come from enrichment with a bait or labelling near it, and not all partners need be listed. No binding means not detected with the bait.

Chains of the proteins cited; added tags and fusions are not shown. Residues count along the entry.
UniProt P35613, residues 22-385: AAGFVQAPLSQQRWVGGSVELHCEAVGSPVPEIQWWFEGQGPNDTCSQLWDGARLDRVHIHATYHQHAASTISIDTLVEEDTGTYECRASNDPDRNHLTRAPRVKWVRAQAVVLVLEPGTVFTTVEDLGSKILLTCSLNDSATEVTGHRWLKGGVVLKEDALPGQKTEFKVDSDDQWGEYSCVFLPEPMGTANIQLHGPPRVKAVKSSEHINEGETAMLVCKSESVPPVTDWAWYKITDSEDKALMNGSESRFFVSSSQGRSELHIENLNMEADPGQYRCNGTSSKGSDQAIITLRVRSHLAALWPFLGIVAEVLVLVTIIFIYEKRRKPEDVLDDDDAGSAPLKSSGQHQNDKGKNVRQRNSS
UniProt Q13620: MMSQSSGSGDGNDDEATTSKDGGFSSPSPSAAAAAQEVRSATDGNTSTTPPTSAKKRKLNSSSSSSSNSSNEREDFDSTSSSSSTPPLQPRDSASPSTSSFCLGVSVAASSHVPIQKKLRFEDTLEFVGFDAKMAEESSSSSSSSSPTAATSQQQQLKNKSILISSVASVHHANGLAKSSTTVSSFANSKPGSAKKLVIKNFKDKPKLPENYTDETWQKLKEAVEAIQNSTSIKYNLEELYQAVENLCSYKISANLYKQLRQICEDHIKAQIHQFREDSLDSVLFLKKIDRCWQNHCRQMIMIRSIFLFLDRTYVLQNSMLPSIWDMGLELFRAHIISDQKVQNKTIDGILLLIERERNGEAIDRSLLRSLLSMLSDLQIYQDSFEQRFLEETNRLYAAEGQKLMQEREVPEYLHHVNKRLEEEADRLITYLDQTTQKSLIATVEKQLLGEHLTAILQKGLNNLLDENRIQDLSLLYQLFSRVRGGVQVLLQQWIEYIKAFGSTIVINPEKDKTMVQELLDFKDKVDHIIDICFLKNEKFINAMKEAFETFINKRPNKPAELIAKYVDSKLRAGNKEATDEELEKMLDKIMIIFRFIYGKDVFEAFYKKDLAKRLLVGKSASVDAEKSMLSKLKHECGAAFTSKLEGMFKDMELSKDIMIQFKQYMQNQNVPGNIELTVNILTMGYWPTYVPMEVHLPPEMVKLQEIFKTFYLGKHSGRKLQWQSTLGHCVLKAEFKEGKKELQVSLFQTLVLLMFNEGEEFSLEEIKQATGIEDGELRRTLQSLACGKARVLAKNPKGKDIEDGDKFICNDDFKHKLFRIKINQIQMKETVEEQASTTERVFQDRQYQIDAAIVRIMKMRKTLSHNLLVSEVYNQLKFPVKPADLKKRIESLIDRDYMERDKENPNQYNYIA
UniProt P61077: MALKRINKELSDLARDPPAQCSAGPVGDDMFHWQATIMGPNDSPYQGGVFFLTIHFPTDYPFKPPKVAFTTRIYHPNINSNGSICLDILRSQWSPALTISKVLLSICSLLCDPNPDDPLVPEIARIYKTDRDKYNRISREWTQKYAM
UniProt Q13619: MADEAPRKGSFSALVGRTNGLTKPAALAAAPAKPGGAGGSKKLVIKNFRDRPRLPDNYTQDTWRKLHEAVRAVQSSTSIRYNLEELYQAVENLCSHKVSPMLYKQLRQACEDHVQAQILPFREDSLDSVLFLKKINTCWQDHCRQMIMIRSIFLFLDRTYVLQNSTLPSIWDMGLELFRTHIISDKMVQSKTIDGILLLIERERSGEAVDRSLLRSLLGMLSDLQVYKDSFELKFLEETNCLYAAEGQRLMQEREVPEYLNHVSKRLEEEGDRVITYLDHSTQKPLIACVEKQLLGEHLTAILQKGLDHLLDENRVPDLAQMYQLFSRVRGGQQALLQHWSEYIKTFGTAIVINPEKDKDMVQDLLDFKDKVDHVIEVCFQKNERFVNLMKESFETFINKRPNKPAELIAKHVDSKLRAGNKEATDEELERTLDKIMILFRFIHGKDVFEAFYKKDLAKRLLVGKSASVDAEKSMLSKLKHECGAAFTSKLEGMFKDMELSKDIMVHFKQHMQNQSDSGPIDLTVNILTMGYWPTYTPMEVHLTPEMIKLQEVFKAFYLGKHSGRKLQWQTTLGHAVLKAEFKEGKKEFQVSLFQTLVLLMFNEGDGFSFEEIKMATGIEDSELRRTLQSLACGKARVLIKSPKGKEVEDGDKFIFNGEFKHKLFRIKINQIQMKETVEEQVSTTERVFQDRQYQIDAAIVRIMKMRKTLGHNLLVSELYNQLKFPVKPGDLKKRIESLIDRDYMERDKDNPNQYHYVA
UniProt P61081: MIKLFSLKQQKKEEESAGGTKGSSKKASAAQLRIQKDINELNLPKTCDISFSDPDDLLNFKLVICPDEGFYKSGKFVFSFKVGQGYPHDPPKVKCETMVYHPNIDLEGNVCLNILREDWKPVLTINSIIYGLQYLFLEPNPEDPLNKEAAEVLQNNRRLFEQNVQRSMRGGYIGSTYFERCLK

target: AGIA-AirID-CRBN-WT (UniProt Q96SW2); test: proximity labelling; look-up of CRL4 components and known CRBN interactors in the LC-MS/MS analyses of AirID-CRBN cells (Supplementary Fig. 7); cell lines not given

Row | Substance | binding
1 | CD147 (from UniProt P35613 22-385) | binds
2 | CUL4B (from UniProt Q13620 1-913) | binds
3 | SQSTM1 (from UniProt Q13501 1-440) | binds
4 | UBE2D3 (from UniProt P61077 1-147) | no binding

Now from value to substance:

Row | binding | Substance
5 | binds | CUL4A (from UniProt Q13619 1-759)
6 | binds | TP53 (from UniProt P04637 1-393)
7 | binds | UBC12 (from UniProt P61081 1-183)
